Assay results as given in patent US20200002405A1.
These are yes or no findings as the source states them, for the method shown. Some entries that bind do so weakly or less than the wild type.

The chains behind the UniProt entries cited, without tags or fusion partners. Residues count along the entry.
UniProt P07399, residues 2-498: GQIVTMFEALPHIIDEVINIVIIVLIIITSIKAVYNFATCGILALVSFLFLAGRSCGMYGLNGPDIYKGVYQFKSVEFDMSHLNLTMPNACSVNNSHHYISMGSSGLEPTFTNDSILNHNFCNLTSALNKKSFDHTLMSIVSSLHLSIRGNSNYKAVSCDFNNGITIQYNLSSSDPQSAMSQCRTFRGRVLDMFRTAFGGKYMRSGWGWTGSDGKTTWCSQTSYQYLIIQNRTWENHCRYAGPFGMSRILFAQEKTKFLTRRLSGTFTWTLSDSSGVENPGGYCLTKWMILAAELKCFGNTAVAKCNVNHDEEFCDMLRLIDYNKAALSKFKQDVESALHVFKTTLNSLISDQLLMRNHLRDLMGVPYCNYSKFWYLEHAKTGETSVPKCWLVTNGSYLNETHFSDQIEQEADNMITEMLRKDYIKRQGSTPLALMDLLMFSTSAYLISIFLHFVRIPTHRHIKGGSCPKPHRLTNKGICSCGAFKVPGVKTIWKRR
UniProt P08669, residues 59-424: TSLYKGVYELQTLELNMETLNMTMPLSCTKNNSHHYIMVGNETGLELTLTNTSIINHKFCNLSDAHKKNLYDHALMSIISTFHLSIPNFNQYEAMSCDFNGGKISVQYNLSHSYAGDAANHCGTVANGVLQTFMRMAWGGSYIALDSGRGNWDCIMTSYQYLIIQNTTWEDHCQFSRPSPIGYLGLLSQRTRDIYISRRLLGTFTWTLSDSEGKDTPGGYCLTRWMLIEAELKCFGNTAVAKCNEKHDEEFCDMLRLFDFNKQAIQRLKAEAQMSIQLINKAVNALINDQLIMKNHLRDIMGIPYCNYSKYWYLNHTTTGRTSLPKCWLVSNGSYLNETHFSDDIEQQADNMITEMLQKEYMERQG

Columns and labels:
[1] = target: LCMV WE strain GP (LCMV, WE strain) (UniProt P07399); experiment: recognition of LCMV GPs, immunofluorescence
[2] = target: LCMV WE strain GP (LCMV, WE strain) (UniProt P07399); experiment: cross-reactivity, immunofluorescence on GP-transfected 293T cells
[3] = target: GP from Josiah strain of LASV (ELISA antigen) (Lassa virus, Josiah strain) (UniProt P08669); experiment: ELISA

B1: 36.9F (antibody, V domains shown)
VH: EVQLVQSGGGLVKAGGSLKLSCGASGFTFSSYSMSWVRQAPGKGLEWVSYISSGGSSIHYADSVKGRFTISRDNAKNSLYLQMKNLRVDDTGRYYCVRDPRSGISGRYGMDVWGQGTTVTVSS
VL: DIVMTQSPDSLAVSLGERATINCKSSQTVLFTSYYVAWYQQKPGQPPKLLFSGASSRESGVPDRFSAGGSGTDFYLTINSLQAEDVADYYCQQYHTPPFTFGGGTKLEIRR
- binding [1]: binds
- binding [2]: binds

B2: 18.5C (antibody)
VH: DEVQLVESGGGLVRPGGSLRLSCAAAGFTFKSYSMNWVRQAPGRGLEWVSSITSGGSKTYYADVVKGRFTVSRDNAKQSLYLQMNSLRAEDTAIYFCARSLHSTSQPSYMDVWGRKITVIVSSASTKGPSVFPLAPSSKSTSGGTAALGCLVKDYFPEPVTVSWNSGALTSGVHTFPAVLQSSGLYSLSSVVTVPSSSLGTQTYICNVNHKPSNTKVDKRVEPKSCDKTHTCPPCPAPELLGGPSVFLFPPKPKDTLMISRTPEVTC
VL: DDIQMTQSPGTLSLSPGERATLSCRASQSVISYYVAWYQHKGGQAPRLLIYGASSRATGVPDRFSGSGSGTDFTLTISSLEPEDFALYYCQYYGSSPLWAFGQGTKVEIKRTVAAPSVFIFPPSDEQLKSGTASVVCLLNNFYPREAKVQWKVDNALQSGNSQESVTEQDSKDSTYSLSSTLTLSKADYEKHKVYACEVTHQGLSSPVTKSFNRGEC
- binding [3]: binds

B3: 9.8A (antibody, V domains shown)
VH: EVQLVQSGGRLVQPGGSLRLSCVASGFTFSSHAMSWVRQAPGKGLEWVSGFSGSSGTTKYADSVKGRFTISRDNSKKTLYLQMNSLRAEDTAVYYCAKGFSPFRGVQFPYFDYWGQGTLVTVSS
VL: DIVMTQSPSTLSASVGDRVTITCRASQSIDRWLAWYQQKPGKAPKLLIYQASSLERGVPSRFSGSGSGTEFTLTISSLQPDDFATYYCQQYNGYPLTFGGGTKVEIKR
- binding [1]: binds
- binding [2]: binds
